Patent US20230101273A1, “MESOIONIC INSECTICIDES” (FMC Corporation, priority 2020, published 2023)
Some of these results come from one statement about several compounds together.

Assays:
Type in all cases: in vivo
[1] = test system: diamondback moth (Plutella xylostella (L.)); test: Test A: control of diamondback moth on mustard plant, spray; details: 6 days, neonate larvae on mustard plant
[2] = test system: fall armyworm (Spodoptera frugiperda (J. E. Smith)); test: Test B: control of fall armyworm on corn plant, spray; details: 6 days, 1-day-old larvae on corn plant
[3] = test system: green peach aphid (Myzus persicae (Sulzer)); test: Test E: control of green peach aphid through contact and/or systemic means; details: sprayed at 50 ppm; 6 days; radish plant
Experimental: (§1) Test compounds were formulated using a solution containing 10% acetone, 90% water and 300 ppm Activator 900 non-ionic surfactant (Loveland Products, Loveland, Colo., USA). The formulated compounds were applied in 1 mL of liquid through an atomizer nozzle positioned 1.27 cm (0.5 inches) above the top of each test unit. Test compounds were sprayed at the rates indicated, and each test was replicated three times.
For evaluating control of green peach aphid (Myzus persicae (Sulzer)) through contact and/or systemic means, the test unit consisted of a small open container with a 12-15-day-old radish plant inside. This was pre-infested by placing on a leaf of the test plant 30-40 aphids on a piece of leaf excised from a culture plant (cut-leaf method). The aphids moved onto the test plant as the leaf piece desiccated. After pre-infestation, the soil of the test unit was covered with a layer of sand.
Test compounds were formulated and sprayed at 50 ppm. After spraying of the formulated test compound, each test unit was allowed to dry for 1 hour and then a black, screened cap was placed on top. The test units were held for 6 days in a growth chamber at 19-21° C. and 50-70% relative humidity. Each test unit was then visually assessed for insect mortality.

[4] = test system: cotton melon aphid (Aphis gossypii (Glover)); test: Test F: control of cotton melon aphid through contact and/or systemic means; details: sprayed at 50 ppm; 6 days; okra plant
Experimental: as §1
[…] This was pre-infested with 30-40 insects on a piece of leaf according to the cut-leaf method, and the soil of the test unit was covered with a layer of sand.
Test compounds were formulated and sprayed at 50 ppm. After spraying, the test units were maintained in a growth chamber for 6 days at 19° C. and 70% relative humidity. Each test unit was then visually assessed for insect mortality.

Row | Structure (SMILES) | control efficacy: feeding damage (40% or less feeding damage and/or 100% mortality) ([1]; sprayed at 0.4 ppm) [%] | control efficacy: feeding damage (40% or less feeding damage and/or 100% mortality) ([1]; sprayed at 2 ppm) [%] | control efficacy: feeding damage (40% or less feeding damage and/or 100% mortality) ([1]; sprayed at 10 ppm) [%] | control efficacy: feeding damage (40% or less feeding damage and/or 100% mortality) ([2]; sprayed at 0.4 ppm) [%] | control efficacy: feeding damage (40% or less feeding damage and/or 100% mortality) ([2]; sprayed at 2 ppm) [%] | control efficacy: feeding damage (40% or less feeding damage and/or 100% mortality) ([2]; sprayed at 10 ppm) [%] | mortality [3] | mortality [4]
1 | CCOc1cc(C#CC2CCCCC2)cc(-c2c([O-])[n+](Cc3cnc(Cl)s3)c3c(C)cccn3c2=O)c1 [Compound 81] | ≤ 40 | ≤ 40 | ≤ 40 | ≤ 40 | ≤ 40 | ≤ 40 | at least 80% | –
2 | Cc1cccn2c(=O)c(-c3cc(C#CC(C)C)cc(OCC(C)C)c3)c([O-])[n+](Cc3cnc(Cl)s3)c12 [Compound 73] | ≤ 40 | ≤ 40 | ≤ 40 | – | ≤ 40 | ≤ 40 | at least 80% | at least 80%
3 | CCC#Cc1cc(OC(C)C)cc(-c2c([O-])[n+](Cc3cnc(Cl)s3)c3c(C)cccn3c2=O)c1 [Compound 82] | ≤ 40 | ≤ 40 | ≤ 40 | ≤ 40 | ≤ 40 | ≤ 40 | at least 80% | at least 80%
4 | CCC#Cc1cc(OC2CC2)cc(-c2c([O-])[n+](Cc3cnc(Cl)s3)c3c(C)cccn3c2=O)c1 [Compound 84] | ≤ 40 | ≤ 40 | ≤ 40 | ≤ 40 | ≤ 40 | ≤ 40 | at least 80% | at least 80%
5 | COc1cc(C#CC2CCCC2)cc(-c2c([O-])[n+](Cc3cnc(Cl)s3)c3c(C)cccn3c2=O)c1 [Compound 15] | ≤ 40 | ≤ 40 | ≤ 40 | – | – | ≤ 40 | at least 80% | at least 80%
6 | CCC#Cc1cc(OCC(C)C)cc(-c2c([O-])[n+](Cc3cnc(Cl)s3)c3c(C)cccn3c2=O)c1 [Compound 75] | ≤ 40 | ≤ 40 | ≤ 40 | ≤ 40 | ≤ 40 | ≤ 40 | at least 80% | at least 80%
7 | COCCOc1cc(C#CC(C)C)cc(-c2c([O-])[n+](Cc3cnc(Cl)s3)c3c(C)cccn3c2=O)c1 [Compound 70] | ≤ 40 | ≤ 40 | ≤ 40 | ≤ 40 | ≤ 40 | ≤ 40 | at least 80% | at least 80%
